Binding data for 4 molecules are collected here from paper PMC6786873.

Sequences of proteins named here, by UniProt entry; tags and fusion partners are left off.
UniProt P19525: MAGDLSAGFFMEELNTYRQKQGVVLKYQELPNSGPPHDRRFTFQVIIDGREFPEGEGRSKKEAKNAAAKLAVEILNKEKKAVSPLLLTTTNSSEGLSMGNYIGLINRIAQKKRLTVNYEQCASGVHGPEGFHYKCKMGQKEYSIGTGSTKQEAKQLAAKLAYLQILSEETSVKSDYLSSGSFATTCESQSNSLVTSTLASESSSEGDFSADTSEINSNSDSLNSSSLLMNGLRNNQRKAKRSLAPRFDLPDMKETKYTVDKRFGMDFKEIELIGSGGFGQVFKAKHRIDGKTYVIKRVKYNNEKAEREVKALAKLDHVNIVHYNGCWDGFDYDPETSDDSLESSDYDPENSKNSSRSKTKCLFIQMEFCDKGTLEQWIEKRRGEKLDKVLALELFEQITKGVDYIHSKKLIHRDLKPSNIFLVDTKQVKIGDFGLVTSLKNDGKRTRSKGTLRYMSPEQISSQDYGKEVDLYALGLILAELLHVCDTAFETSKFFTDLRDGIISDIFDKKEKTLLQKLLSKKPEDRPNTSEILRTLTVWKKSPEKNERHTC
UniProt O94915: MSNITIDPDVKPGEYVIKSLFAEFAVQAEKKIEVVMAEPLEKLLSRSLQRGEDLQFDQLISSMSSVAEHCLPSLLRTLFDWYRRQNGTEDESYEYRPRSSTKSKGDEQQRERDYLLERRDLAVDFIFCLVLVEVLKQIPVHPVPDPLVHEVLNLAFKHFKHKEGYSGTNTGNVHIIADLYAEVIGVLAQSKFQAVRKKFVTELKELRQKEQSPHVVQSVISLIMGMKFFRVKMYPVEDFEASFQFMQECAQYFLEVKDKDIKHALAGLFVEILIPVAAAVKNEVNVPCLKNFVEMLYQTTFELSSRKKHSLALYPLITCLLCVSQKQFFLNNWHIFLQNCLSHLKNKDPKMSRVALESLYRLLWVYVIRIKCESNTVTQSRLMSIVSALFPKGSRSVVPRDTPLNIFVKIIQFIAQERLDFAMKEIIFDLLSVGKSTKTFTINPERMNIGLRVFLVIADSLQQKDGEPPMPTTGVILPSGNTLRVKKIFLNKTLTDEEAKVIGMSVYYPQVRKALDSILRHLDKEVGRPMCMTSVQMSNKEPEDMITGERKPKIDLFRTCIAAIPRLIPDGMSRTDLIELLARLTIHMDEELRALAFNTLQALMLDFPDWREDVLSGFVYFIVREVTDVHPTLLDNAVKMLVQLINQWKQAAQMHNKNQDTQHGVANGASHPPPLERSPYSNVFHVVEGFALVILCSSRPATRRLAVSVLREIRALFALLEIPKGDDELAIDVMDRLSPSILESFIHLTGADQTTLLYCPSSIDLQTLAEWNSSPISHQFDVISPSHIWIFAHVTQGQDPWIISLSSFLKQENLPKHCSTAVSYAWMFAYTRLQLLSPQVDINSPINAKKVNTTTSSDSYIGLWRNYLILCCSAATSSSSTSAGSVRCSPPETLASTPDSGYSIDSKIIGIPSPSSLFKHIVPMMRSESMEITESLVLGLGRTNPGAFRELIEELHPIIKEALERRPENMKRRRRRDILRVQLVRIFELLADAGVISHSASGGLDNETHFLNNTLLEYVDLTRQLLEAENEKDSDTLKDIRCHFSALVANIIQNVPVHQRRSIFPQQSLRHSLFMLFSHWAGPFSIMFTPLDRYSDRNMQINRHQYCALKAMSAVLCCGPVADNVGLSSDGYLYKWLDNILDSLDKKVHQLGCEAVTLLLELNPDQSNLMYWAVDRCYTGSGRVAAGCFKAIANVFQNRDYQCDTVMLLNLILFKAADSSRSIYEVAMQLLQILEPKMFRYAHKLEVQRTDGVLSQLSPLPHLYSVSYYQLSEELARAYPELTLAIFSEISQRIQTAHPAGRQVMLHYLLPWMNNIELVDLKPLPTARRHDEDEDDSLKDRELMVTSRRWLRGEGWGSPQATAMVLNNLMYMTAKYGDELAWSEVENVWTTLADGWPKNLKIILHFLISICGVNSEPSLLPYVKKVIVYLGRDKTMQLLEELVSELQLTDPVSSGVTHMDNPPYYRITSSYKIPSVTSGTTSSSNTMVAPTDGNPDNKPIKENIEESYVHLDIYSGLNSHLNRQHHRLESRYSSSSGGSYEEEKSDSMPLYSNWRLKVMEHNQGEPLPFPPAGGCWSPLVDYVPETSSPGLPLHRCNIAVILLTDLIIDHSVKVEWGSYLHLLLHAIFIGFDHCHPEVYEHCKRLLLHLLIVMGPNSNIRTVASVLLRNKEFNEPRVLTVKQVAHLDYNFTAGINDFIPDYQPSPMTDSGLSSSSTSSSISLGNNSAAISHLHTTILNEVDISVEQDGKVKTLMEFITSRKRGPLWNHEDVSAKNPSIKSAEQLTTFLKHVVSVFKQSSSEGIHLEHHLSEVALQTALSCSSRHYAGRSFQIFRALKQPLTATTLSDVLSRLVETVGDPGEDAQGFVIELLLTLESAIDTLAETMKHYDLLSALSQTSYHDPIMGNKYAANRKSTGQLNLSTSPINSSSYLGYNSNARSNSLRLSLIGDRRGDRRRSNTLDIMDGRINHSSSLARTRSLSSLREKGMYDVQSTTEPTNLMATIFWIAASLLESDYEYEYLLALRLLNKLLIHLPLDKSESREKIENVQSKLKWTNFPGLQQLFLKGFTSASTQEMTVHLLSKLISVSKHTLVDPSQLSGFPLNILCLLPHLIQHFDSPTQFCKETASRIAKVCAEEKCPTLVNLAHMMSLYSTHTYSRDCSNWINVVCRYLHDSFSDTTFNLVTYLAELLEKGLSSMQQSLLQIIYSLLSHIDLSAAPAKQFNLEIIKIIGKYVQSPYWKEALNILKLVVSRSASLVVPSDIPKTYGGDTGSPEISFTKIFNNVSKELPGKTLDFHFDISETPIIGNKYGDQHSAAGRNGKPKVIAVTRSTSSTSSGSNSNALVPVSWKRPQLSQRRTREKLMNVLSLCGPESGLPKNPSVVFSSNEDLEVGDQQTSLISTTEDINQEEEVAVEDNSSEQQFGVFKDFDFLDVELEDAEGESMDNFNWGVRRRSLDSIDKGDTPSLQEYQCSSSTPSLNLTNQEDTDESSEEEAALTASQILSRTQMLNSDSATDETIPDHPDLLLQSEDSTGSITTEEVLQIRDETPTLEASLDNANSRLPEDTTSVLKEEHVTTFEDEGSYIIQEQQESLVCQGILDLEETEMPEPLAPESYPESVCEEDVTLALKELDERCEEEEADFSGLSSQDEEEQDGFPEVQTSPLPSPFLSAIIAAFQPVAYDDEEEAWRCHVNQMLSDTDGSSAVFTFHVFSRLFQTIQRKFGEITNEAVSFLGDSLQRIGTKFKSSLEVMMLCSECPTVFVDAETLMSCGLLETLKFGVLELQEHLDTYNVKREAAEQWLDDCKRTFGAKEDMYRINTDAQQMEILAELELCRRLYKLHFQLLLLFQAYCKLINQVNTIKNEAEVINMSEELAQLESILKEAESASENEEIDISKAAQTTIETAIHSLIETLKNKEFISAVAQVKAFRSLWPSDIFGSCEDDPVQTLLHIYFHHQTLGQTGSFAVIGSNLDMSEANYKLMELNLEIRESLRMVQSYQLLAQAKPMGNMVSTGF
UniProt P25788: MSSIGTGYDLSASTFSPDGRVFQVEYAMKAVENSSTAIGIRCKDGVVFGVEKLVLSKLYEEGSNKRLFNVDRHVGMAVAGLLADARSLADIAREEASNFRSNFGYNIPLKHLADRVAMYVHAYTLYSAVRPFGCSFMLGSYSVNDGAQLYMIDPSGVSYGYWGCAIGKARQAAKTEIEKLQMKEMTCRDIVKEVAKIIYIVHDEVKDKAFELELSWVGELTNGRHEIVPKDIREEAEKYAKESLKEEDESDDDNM

To fix the notation:
T1: NHLRC2 (NHL-repeat-containing protein 2) (human (endogenous in THP-1)) (UniProt Q8NBF2)
T1 sequence: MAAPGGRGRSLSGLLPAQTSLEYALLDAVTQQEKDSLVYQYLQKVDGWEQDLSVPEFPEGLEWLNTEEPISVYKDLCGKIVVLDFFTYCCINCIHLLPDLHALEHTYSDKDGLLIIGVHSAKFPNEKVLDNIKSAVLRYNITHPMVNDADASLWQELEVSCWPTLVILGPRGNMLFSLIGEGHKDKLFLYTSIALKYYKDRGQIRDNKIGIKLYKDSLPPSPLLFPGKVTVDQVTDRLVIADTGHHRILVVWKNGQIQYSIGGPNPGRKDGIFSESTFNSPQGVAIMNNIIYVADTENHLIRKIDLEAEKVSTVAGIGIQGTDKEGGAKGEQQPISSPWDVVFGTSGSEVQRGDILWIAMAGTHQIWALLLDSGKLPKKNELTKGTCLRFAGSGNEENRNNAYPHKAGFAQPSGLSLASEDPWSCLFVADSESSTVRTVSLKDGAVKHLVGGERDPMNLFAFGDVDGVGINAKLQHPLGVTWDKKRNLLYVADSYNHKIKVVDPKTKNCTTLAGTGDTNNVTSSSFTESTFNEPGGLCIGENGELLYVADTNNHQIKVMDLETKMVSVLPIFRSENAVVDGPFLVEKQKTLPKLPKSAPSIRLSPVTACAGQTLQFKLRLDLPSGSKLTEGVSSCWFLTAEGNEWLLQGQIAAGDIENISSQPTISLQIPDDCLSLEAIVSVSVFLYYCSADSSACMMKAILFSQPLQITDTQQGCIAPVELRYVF

B1: KLHL13 (Kelch like family member 13) (protein, UniProt Q9P2N7 1-655)
chain: MPLKWKTSSPAIWKFPVPVLKTSRSTPLSPAYISLVEEEDQHMKLSLGGSEMGLSSHLQSSKAGPTRIFTSNTHSSVVLQGFDQLRLEGLLCDVTLMPGDTDDAFPVHRVMMASASDYFKAMFTGGMKEQDLMCIKLHGVSKVGLRKIIDFIYTAKLSLNMDNLQDTLEAASFLQILPVLDFCKVFLISGVTLDNCVEVGRIANTYNLTEVDKYVNSFVLKNFPALLSTGEFLKLPFERLAFVLSSNSLKHCTELELFKATCRWLRLEEPRMDFAAKLMKNIRFPLMTPQELINYVQTVDFMRTDNTCVNLLLEASNYQMMPYMQPVMQSDRTAIRSDTTHLVTLGGVLRQQLVVSKELRMYDEKAHEWKSLAPMDAPRYQHGIAVIGNFLYVVGGQSNYDTKGKTAVDTVFRFDPRYNKWMQVASLNEKRTFFHLSALKGYLYAVGGRNAAGELPTVECYNPRTNEWTYVAKMSEPHYGHAGTVYGGVMYISGGITHDTFQKELMCFDPDTDKWIQKAPMTTVRGLHCMCTVGERLYVIGGNHFRGTSDYDDVLSCEYYSPILDQWTPIAAMLRGQSDVGVAVFENKIYVVGGYSWNNRCMVEIVQKYDPDKDEWHKVFDLPESLGGIRACTLTVFPPEETTPSPSRESPLSAP

These are yes or no findings as the source states them, for the method shown. In cells and extracts the contact can be indirect. Here binding means that the protein was enriched with, or labelled near, the bait; the list need not be complete.

In this experiment the target is T1, NHLRC2 (NHL-repeat-containing protein 2) (human (endogenous in THP-1)). The experiment in a line: affinity purification with mass spectrometry; anti-NHLRC2 antibody (HPA038493) on nondenaturing whole-cell lysates of WT and NHLRC2 mutant THP-1 cells, protein A magnetic beads, IgG isotype control; eluates separated on Tris-glycine gel, LC-MS/MS; proteins with quantitative value >0 in the IgG control removed.
On to “EIF2AK2 (eukaryotic translation initiation factor 2 alpha kinase 2) (from UniProt P19525 1-551)”, for which the binding result was “binds”.
As for “FRYL (FRY like transcription coactivator) (from UniProt O94915 1-3013)”, the binding entry is listed as “binds”.
As for PSMA3 (from UniProt P25788 1-255), the binding result was “binds”.
Then B1, with “binds”.
